{"source": "the supplement of paper PMC8728848", "binders": {"B1": {"name": "HFR-3 (Triticum aestivum) (protein)", "chain": "MKGLLLCALALAFAAVTTHAQLQSCPTRCGKQADGMECPNNLCCSKDGYCGLGVDYCSAGAGCQSGACYDNKICGAQANGTLCRNNHCCSSGGRCGYGREYCSNGCQGGPCWADLKCGHLDNGKLCPNNLCCSQYGYCGLGPEFCGTGCQNGACSTDKPCGNKANGAPCTNNYCCSQYGSCGLGKDYCGTGCQNGACN"}}, "test_in_all_cases": "glycan array binding signal (z-score within array); higher = stronger binding", "settings_in_all_cases": "glycan notation: IUPAC condensed, linker removed", "key": {"[1]": {"target": "Fuc(a1-2)Gal(b1-4)GlcNAc(b1-3)Gal(b1-4)GlcNAc(b1-3)Gal(b1-4)GlcNAc", "method_in_brief": "(§1)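 Glycan array binding is given as a within-array Z-score, which can be read as non-binding when negative. The arrays, 3228 of them, came from the Consortium for Functional Glycomics database and were retained only where the protein sequence was available. Z-scores were averaged across arrays of the same protein sequence at different concentrations or buffers and across linkers.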"}, "[2]": {"target": "Fuc(a1-2)Gal(b1-4)GlcNAc(b1-3)GalNAc", "method_in_brief": "as §1"}, "[3]": {"target": "Fuc(a1-2)Gal(b1-4)GlcNAc(b1-3)[Fuc(a1-2)Gal(b1-4)GlcNAc(b1-6)]GalNAc", "method_in_brief": "as §1"}, "[4]": {"target": "Fuc(a1-2)Gal(b1-4)GlcNAc(b1-3)[Fuc(a1-3)[Gal(b1-4)]GlcNAc(b1-6)]Gal(b1-4)Glc", "method_in_brief": "as §1"}, "[5]": {"target": "Fuc(a1-2)Gal(b1-4)GlcNAc(b1-6)GalNAc", "method_in_brief": "as §1"}, "[6]": {"target": "Fuc(a1-2)Gal(b1-4)GlcNAc6S", "method_in_brief": "as §1"}, "[7]": {"target": "Fuc(a1-2)Gal(b1-4)[Fuc(a1-3)]GlcNAc", "method_in_brief": "as §1"}, "[8]": {"target": "Fuc(a1-2)Gal(b1-4)[Fuc(a1-3)]GlcNAc(b1-2)Man(a1-3)[Fuc(a1-2)Gal(b1-4)[Fuc(a1-3)]GlcNAc(b1-2)Man(a1-6)]Man(b1-4)GlcNAc(b1-4)[Fuc(a1-6)]GlcNAc", "method_in_brief": "as §1"}, "[9]": {"target": "Fuc(a1-2)Gal(b1-4)[Fuc(a1-3)]GlcNAc(b1-2)[Fuc(a1-2)Gal(b1-4)[Fuc(a1-3)]GlcNAc(b1-4)]Man(a1-3)[Fuc(a1-2)Gal(b1-4)[Fuc(a1-3)]GlcNAc(b1-2)Man(a1-6)]Man(b1-4)GlcNAc(b1-4)GlcNAc", "method_in_brief": "as §1"}, "[10]": {"target": "Fuc(a1-2)Gal(b1-4)[Fuc(a1-3)]GlcNAc(b1-3)Gal(b1-4)[Fuc(a1-3)]GlcNAc", "method_in_brief": "as §1"}, "[11]": {"target": "Fuc(a1-2)Gal(b1-4)[Fuc(a1-3)]GlcNAc(b1-3)Gal(b1-4)[Fuc(a1-3)]GlcNAc(b1-3)Gal(b1-4)[Fuc(a1-3)]GlcNAc", "method_in_brief": "as §1"}, "[12]": {"target": "Fuc(a1-2)Gal(b1-4)[Fuc(a1-3)]GlcNAc(b1-3)GalNAc", "method_in_brief": "as §1"}, "[13]": {"target": "Fuc(a1-2)Gal(b1-4)[Fuc(a1-3)]GlcNAc(b1-3)[Neu5Ac(a2-6)Gal(b1-4)GlcNAc(b1-6)]Gal(b1-4)Glc", "method_in_brief": "as §1"}, "[14]": {"target": "Fuc(a1-2)Gal3S(b1-4)GlcNAc", "method_in_brief": "as §1"}, "[15]": {"target": "Fuc(a1-2)Gal6S(b1-3)GlcNAc", "method_in_brief": "as §1"}, "[16]": {"target": "Fuc(a1-2)Gal6S(b1-3)GlcNAc6S", "method_in_brief": "as §1"}, "Fuc(a1-2)Gal6S(b1-4)Glc": {"target": "Fuc(a1-2)Gal6S(b1-4)Glc", "method_in_brief": "as §1"}, "[17]": {"target": "Fuc(a1-2)Gal6S(b1-4)Glc6S", "method_in_brief": "as §1"}, "Fuc(a1-2)[Gal(a1-3)]Gal": {"target": "Fuc(a1-2)[Gal(a1-3)]Gal", "method_in_brief": "as §1"}, "[18]": {"target": "Fuc(a1-2)[Gal(a1-3)]Gal(b1-3)GalNAc", "method_in_brief": "as §1"}, "[19]": {"target": "Fuc(a1-2)[Gal(a1-3)]Gal(b1-3)GalNAc(b1-3)Gal(a1-4)Gal(b1-4)Glc", "method_in_brief": "as §1"}, "[20]": {"target": "Fuc(a1-2)[Gal(a1-3)]Gal(b1-3)GlcNAc", "method_in_brief": "as §1"}, "[21]": {"target": "Fuc(a1-2)[Gal(a1-3)]Gal(b1-3)GlcNAc(b1-2)Man(a1-3)[Fuc(a1-2)[Gal(a1-3)]Gal(b1-3)GlcNAc(b1-2)Man(a1-6)]Man(b1-4)GlcNAc(b1-4)GlcNAc", "method_in_brief": "as §1"}, "[22]": {"target": "Fuc(a1-2)[Gal(a1-3)]Gal(b1-3)GlcNAc(b1-2)Man(a1-3)[Fuc(a1-2)[Gal(a1-3)]Gal(b1-3)GlcNAc(b1-2)Man(a1-6)]Man(b1-4)GlcNAc(b1-4)[Fuc(a1-6)]GlcNAc", "method_in_brief": "as §1"}, "[23]": {"target": "Fuc(a1-2)[Gal(a1-3)]Gal(b1-3)GlcNAc(b1-3)GalNAc", "method_in_brief": "as §1"}, "[24]": {"target": "Fuc(a1-2)[Gal(a1-3)]Gal(b1-3)GlcNAc(b1-6)GalNAc", "method_in_brief": "as §1"}, "[25]": {"target": "Fuc(a1-2)[Gal(a1-3)]Gal(b1-4)Glc", "method_in_brief": "as §1"}, "[26]": {"target": "Fuc(a1-2)[Gal(a1-3)]Gal(b1-4)GlcNAc", "method_in_brief": "as §1"}, "[27]": {"target": "Fuc(a1-2)[Gal(a1-3)]Gal(b1-4)GlcNAc(b1-2)Man", "method_in_brief": "as §1"}, "[28]": {"target": "Fuc(a1-2)[Gal(a1-3)]Gal(b1-4)GlcNAc(b1-2)Man(a1-3)[Fuc(a1-2)[Gal(a1-3)]Gal(b1-4)GlcNAc(b1-2)Man(a1-6)]Man(b1-4)GlcNAc(b1-4)GlcNAc", "method_in_brief": "as §1"}}, "note": "The list shows a part of the results."}
{"binder": "B1", "values": [{"measurement": "glycan array binding signal (z-score)", "setting": "[1]", "result": -1.6}, {"measurement": "glycan array binding signal (z-score)", "setting": "[2]", "result": 0.481}, {"measurement": "glycan array binding signal (z-score)", "setting": "[3]", "result": 1.31}, {"measurement": "glycan array binding signal (z-score)", "setting": "[4]", "result": -1.08}, {"measurement": "glycan array binding signal (z-score)", "setting": "[5]", "result": 0.475}, {"measurement": "glycan array binding signal (z-score)", "setting": "[6]", "result": 0.021}, {"measurement": "glycan array binding signal (z-score)", "setting": "[7]", "result": 0.738}, {"measurement": "glycan array binding signal (z-score)", "setting": "[8]", "result": 1.56}, {"measurement": "glycan array binding signal (z-score)", "setting": "[9]", "result": 0.772}, {"measurement": "glycan array binding signal (z-score)", "setting": "[10]", "result": -1}, {"measurement": "glycan array binding signal (z-score)", "setting": "[11]", "result": 0.775}, {"measurement": "glycan array binding signal (z-score)", "setting": "[12]", "result": -1.14}, {"measurement": "glycan array binding signal (z-score)", "setting": "[13]", "result": -0.54}, {"measurement": "glycan array binding signal (z-score)", "setting": "[14]", "result": -0.083}, {"measurement": "glycan array binding signal (z-score)", "setting": "[15]", "result": -0.314}, {"measurement": "glycan array binding signal (z-score)", "setting": "[16]", "result": -0.575}, {"measurement": "glycan array binding signal (z-score)", "setting": "Fuc(a1-2)Gal6S(b1-4)Glc", "result": -0.893}, {"measurement": "glycan array binding signal (z-score)", "setting": "[17]", "result": -0.695}, {"measurement": "glycan array binding signal (z-score)", "setting": "Fuc(a1-2)[Gal(a1-3)]Gal", "result": 0.031}, {"measurement": "glycan array binding signal (z-score)", "setting": "[18]", "result": -0.263}, {"measurement": "glycan array binding signal (z-score)", "setting": "[19]", "result": -1.19}, {"measurement": "glycan array binding signal (z-score)", "setting": "[20]", "result": 0.236}, {"measurement": "glycan array binding signal (z-score)", "setting": "[21]", "result": 0.149}, {"measurement": "glycan array binding signal (z-score)", "setting": "[22]", "result": -0.984}, {"measurement": "glycan array binding signal (z-score)", "setting": "[23]", "result": -0.604}, {"measurement": "glycan array binding signal (z-score)", "setting": "[24]", "result": -0.039}, {"measurement": "glycan array binding signal (z-score)", "setting": "[25]", "result": 0.055}, {"measurement": "glycan array binding signal (z-score)", "setting": "[26]", "result": 0.097}, {"measurement": "glycan array binding signal (z-score)", "setting": "[27]", "result": 0.323}, {"measurement": "glycan array binding signal (z-score)", "setting": "[28]", "result": 1.04}]}
